Measured values as given in the supplement of paper PMC7661543.
Differences between knockout arms are mostly noise.

Tested on: BT-20
Experiment: relative cell number vs DMSO control (72 h) (% of DMSO); higher = less growth inhibition (more cells)
Protocol: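 QMAP-Seq: a pool of 5 breast cancer cell lines (ZR-75-1, SKBR3, HCC-38, MDA-MB-231, BT-20), each carrying 12 doxycycline-inducible Cas9 sgRNA perturbations (11 knockouts plus non-targeting sgNT), was treated with compounds for 72 h at four 10-fold doses (10 nM-10 uM or 1 nM-1 uM range). Barcodes were amplified and sequenced, and cell number was interpolated from 293T spike-in standard curves. The result is expressed as % of the median of DMSO wells. Two biological replicates.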

Cc1ccccc1-n1c(Cn2cnc3c(N)ncnc32)nc2cccc(C)c2c1=O
Settings	relative cell number
sgRNA knockout: sgATF3, 10 nM	107
sgRNA knockout: sgATF3, 100 nM	113
sgRNA knockout: sgATF3, 1000 nM	95.2
sgRNA knockout: sgATF3, 10000 nM	116
sgRNA knockout: sgATF4, 10 nM	105
sgRNA knockout: sgATF4, 100 nM	131
sgRNA knockout: sgATF4, 1000 nM	101
sgRNA knockout: sgATF4, 10000 nM	115
sgRNA knockout: sgATF6, 10 nM	106
sgRNA knockout: sgATF6, 100 nM	119
sgRNA knockout: sgATF6, 1000 nM	73.7
sgRNA knockout: sgATF6, 10000 nM	99.1
sgRNA knockout: sgATG7, 10 nM	102
sgRNA knockout: sgATG7, 100 nM	136
sgRNA knockout: sgATG7, 1000 nM	98.3
sgRNA knockout: sgATG7, 10000 nM	115
sgRNA knockout: sgERN1, 10 nM	107
sgRNA knockout: sgERN1, 100 nM	109
sgRNA knockout: sgERN1, 1000 nM	85.3
sgRNA knockout: sgERN1, 10000 nM	94
sgRNA knockout: sgHSF1, 10 nM	90.2
sgRNA knockout: sgHSF1, 100 nM	105
sgRNA knockout: sgHSF1, 1000 nM	73.6
sgRNA knockout: sgHSF1, 10000 nM	110
sgRNA knockout: sgHSF2, 10 nM	103
sgRNA knockout: sgHSF2, 100 nM	128
sgRNA knockout: sgHSF2, 1000 nM	88
sgRNA knockout: sgHSF2, 10000 nM	114.1
sgRNA knockout: sgKEAP1, 10 nM	91.4
sgRNA knockout: sgKEAP1, 100 nM	108
sgRNA knockout: sgKEAP1, 1000 nM	88.7
sgRNA knockout: sgKEAP1, 10000 nM	99.1
sgRNA knockout: sgNFE2L2, 10 nM	115
sgRNA knockout: sgNFE2L2, 100 nM	160
sgRNA knockout: sgNFE2L2, 1000 nM	112
sgRNA knockout: sgNFE2L2, 10000 nM	115
sgRNA knockout: sgSLC35F2, 10 nM	109
sgRNA knockout: sgSLC35F2, 100 nM	124
sgRNA knockout: sgSLC35F2, 1000 nM	89.1
sgRNA knockout: sgSLC35F2, 10000 nM	132
sgRNA knockout: sgXBP1, 10 nM	97.9
sgRNA knockout: sgXBP1, 100 nM	123
sgRNA knockout: sgXBP1, 1000 nM	101
sgRNA knockout: sgXBP1, 10000 nM	111

O=c1ncccn1[C@@H]1O[C@H](CO)[C@@H](O)[C@H]1O [Zebularine]
Settings	relative cell number
sgRNA knockout: sgATF3, 10 nM	115
sgRNA knockout: sgATF3, 100 nM	93.9
sgRNA knockout: sgATF3, 1000 nM	94.7
sgRNA knockout: sgATF3, 10000 nM	119
sgRNA knockout: sgATF4, 10 nM	115.7
sgRNA knockout: sgATF4, 100 nM	86.6
sgRNA knockout: sgATF4, 1000 nM	95.5
sgRNA knockout: sgATF4, 10000 nM	108
sgRNA knockout: sgATF6, 10 nM	104
sgRNA knockout: sgATF6, 100 nM	100
sgRNA knockout: sgATF6, 1000 nM	99
sgRNA knockout: sgATF6, 10000 nM	106
sgRNA knockout: sgATG7, 10 nM	130
sgRNA knockout: sgATG7, 100 nM	96.4
sgRNA knockout: sgATG7, 1000 nM	102
sgRNA knockout: sgATG7, 10000 nM	120
sgRNA knockout: sgERN1, 10 nM	103
sgRNA knockout: sgERN1, 100 nM	104
sgRNA knockout: sgERN1, 1000 nM	103
sgRNA knockout: sgERN1, 10000 nM	91
sgRNA knockout: sgHSF1, 10 nM	131
sgRNA knockout: sgHSF1, 100 nM	112
sgRNA knockout: sgHSF1, 1000 nM	89.1
sgRNA knockout: sgHSF1, 10000 nM	107
sgRNA knockout: sgHSF2, 10 nM	95.1
sgRNA knockout: sgHSF2, 100 nM	93.1
sgRNA knockout: sgHSF2, 1000 nM	88.3
sgRNA knockout: sgHSF2, 10000 nM	84.7
sgRNA knockout: sgKEAP1, 10 nM	102
sgRNA knockout: sgKEAP1, 100 nM	105
sgRNA knockout: sgKEAP1, 1000 nM	97.6
sgRNA knockout: sgKEAP1, 10000 nM	108
sgRNA knockout: sgNFE2L2, 10 nM	109
sgRNA knockout: sgNFE2L2, 100 nM	102
sgRNA knockout: sgNFE2L2, 1000 nM	94.3
sgRNA knockout: sgNFE2L2, 10000 nM	82.9
sgRNA knockout: sgSLC35F2, 10 nM	105
sgRNA knockout: sgSLC35F2, 100 nM	94.8
sgRNA knockout: sgSLC35F2, 1000 nM	81.8
sgRNA knockout: sgSLC35F2, 10000 nM	99.5
sgRNA knockout: sgXBP1, 10 nM	102
sgRNA knockout: sgXBP1, 100 nM	102
sgRNA knockout: sgXBP1, 1000 nM	88.5
sgRNA knockout: sgXBP1, 10000 nM	117

Nc1ncn([C@H]2C[C@H](O)[C@@H](CO)O2)c(=O)n1 [Decitabine]
Settings	relative cell number
sgRNA knockout: sgATF3, 10 nM	92.6
sgRNA knockout: sgATF3, 100 nM	96.4
sgRNA knockout: sgATF3, 1000 nM	73.14
sgRNA knockout: sgATF3, 10000 nM	41.2
sgRNA knockout: sgATF4, 10 nM	98.3
sgRNA knockout: sgATF4, 100 nM	87
sgRNA knockout: sgATF4, 1000 nM	75.9
sgRNA knockout: sgATF4, 10000 nM	47.1
sgRNA knockout: sgATF6, 10 nM	96
sgRNA knockout: sgATF6, 100 nM	86.4
sgRNA knockout: sgATF6, 1000 nM	82.2
sgRNA knockout: sgATF6, 10000 nM	44.7
sgRNA knockout: sgATG7, 10 nM	96.8
sgRNA knockout: sgATG7, 100 nM	91.6
sgRNA knockout: sgATG7, 1000 nM	81.7
sgRNA knockout: sgATG7, 10000 nM	54.4
sgRNA knockout: sgERN1, 10 nM	110
sgRNA knockout: sgERN1, 100 nM	87.4
sgRNA knockout: sgERN1, 1000 nM	76.9
sgRNA knockout: sgERN1, 10000 nM	53.9
sgRNA knockout: sgHSF1, 10 nM	115
sgRNA knockout: sgHSF1, 100 nM	98.4
sgRNA knockout: sgHSF1, 1000 nM	73
sgRNA knockout: sgHSF1, 10000 nM	51.1
sgRNA knockout: sgHSF2, 10 nM	96
sgRNA knockout: sgHSF2, 100 nM	80.6
sgRNA knockout: sgHSF2, 1000 nM	65.2
sgRNA knockout: sgHSF2, 10000 nM	46.8
sgRNA knockout: sgKEAP1, 10 nM	113
sgRNA knockout: sgKEAP1, 100 nM	87.2
sgRNA knockout: sgKEAP1, 1000 nM	73.7
sgRNA knockout: sgKEAP1, 10000 nM	48.2
sgRNA knockout: sgNFE2L2, 10 nM	108
sgRNA knockout: sgNFE2L2, 100 nM	93.2
sgRNA knockout: sgNFE2L2, 1000 nM	72.3
sgRNA knockout: sgNFE2L2, 10000 nM	48.7
sgRNA knockout: sgSLC35F2, 10 nM	93
sgRNA knockout: sgSLC35F2, 100 nM	84
sgRNA knockout: sgSLC35F2, 1000 nM	86.4
sgRNA knockout: sgSLC35F2, 10000 nM	45.9
sgRNA knockout: sgXBP1, 10 nM	108
sgRNA knockout: sgXBP1, 100 nM	96.9
sgRNA knockout: sgXBP1, 1000 nM	66.8
sgRNA knockout: sgXBP1, 10000 nM	46.5
